# In patent publication US10052289B2, “Composition comprising an active agent with low aqueous solubility” (Flamel Ireland Limited, priority 2008, dated 2018):
# Columns and labels:
# physchem = details: pH 7, aqueous with cosolvent or surfactant or cyclodextrin
# [1] = pH 7
compound,measurement,setting,value
"COC(=O)C1=C(C)NC(C)=C(C(=O)OC)C1c1ccccc1[N+](=O)[O-] [Nifedipine, nifedipine]",solubility,physchem,867 µM
same,Solubilized active ingredient in μmol per g of polymer,[1],43 μmol per g of polymer
